This is one part of the list. Shown are side measurements of this screen, not its main read-out; they come without a call. The list favours compounds with an active or inconclusive main result. Words in brackets tell the shape of the fitted curve; partial curves, single points and poor fits give uncertain potencies.
Assay: qHTS Assay for Modulators of Lamin A Splicing
Conditions: HeLa LMNA splicing GFP/RFP minigene ratio, 48 h
Procedure, shortened: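 Read-out is the ratio of GFP to DsRed2 object intensity, acquired by 488 nm laser-scanning cytometry on HeLa lamin A-EGFP minigene reporter cells. Compound incubation 48 hrs at 37 °C in Opti-MEM with 2% FBS; DMSO 0.5% final.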

[1] = measured here: GFP splicing reporter channel
[2] = measured here: RFP viability control channel

Structure (SMILES)	AC50 [1]	AC50 [2]
CC(NC(=O)c1ccc(NC(=O)c2nsc3ccccc23)cc1)c1ccccc1 (configuration not stated)	0.447 µM [rising, partial curve, poor fit]	0.501 µM [rising, partial curve, poor fit]
OC(COC(c1ccccc1)c1ccccc1)CN1CCN(c2ccccn2)CC1 (configuration not stated)	15.8 µM [rising, single point]	22.4 µM [rising, single point]
COC(=O)c1ccc(C(=O)OC)c(NC(=O)CN(C)Cc2ccccc2)c1	12.6 µM [rising, partial curve]	12.6 µM [rising, partial curve]
N#Cc1cc(NC(=O)c2ccc(F)cc2)c(=O)n2c1[nH]c1ccccc12	–	11.2 µM [rising, single point]
COc1cc(/C=C2\SC(=O)N(Cc3ccc(Cl)cc3)C2=O)cc([N+](=O)[O-])c1O	2.24 µM [falling, single point]	–
CN1/C(=C\P(=O)(N(C)C)N(C)C)C(C)(C)c2ccccc21	–	14.1 µM [rising, single point]
S=C(Nc1ccc(Cl)cc1Cl)N1CCCCC1	5.01 µM [rising, partial curve]	15.8 µM [rising, partial curve]
CCN(CCNC(=O)CS(=O)(=O)Cc1nc(-c2cccc(OC)c2)oc1C)c1ccccc1	–	2.51 µM [rising, partial curve, poor fit]
COc1ccccc1-c1nc(C#N)c(N2CCC(Cc3ccccc3)CC2)o1	–	11.2 µM [rising, partial curve]
CCOc1nc(SCCOc2ccc(Cl)cc2Cl)nc(N(C)C)n1	14.1 µM [rising, single point]	25.1 µM [rising, single point]
Cc1cccc(C(=O)Nc2cccc(OCc3cc(=O)n4cccc(C)c4n3)c2)c1	0.708 µM [rising, single point]	–
COc1ccc(Nc2cc(C(=O)N3CCc4ccccc4C3)c3ccccc3n2)c(OC)c1	35.5 µM [falling, single point]	–
COc1ccc(/C=N/NC(=O)CCn2cnc(-c3ccccc3)c2-c2ccccc2)cc1OC	17.8 µM [rising, partial curve, poor fit]	7.08 µM [rising, partial curve]
Cc1nnc(N2CCCC(C(=O)Nc3cccc(C(F)(F)F)c3)C2)c2nn(-c3ccccc3)c(C)c12 (configuration not stated)	25.1 µM [falling, single point]	35.5 µM [falling, single point]
CCNS(=O)(=O)c1ccc(NC(=O)Nc2cccc(OC)c2)cc1	–	35.5 µM [rising, single point]
O=C(Nc1cccc(Cl)c1)c1cc(-c2ccc3c(c2)OCCO3)on1	–	0.794 µM [falling, full curve, poor fit]
CCC(=O)c1ccc(OCC(O)Cn2c(C)nc3ccccc32)cc1 (configuration not stated)	5.01 µM [rising, partial curve, poor fit]	6.31 µM [rising, partial curve]
COc1ccc2[nH]c(C)c(CCNC(=S)Nc3cccc(C)c3)c2c1	35.5 µM [rising, single point]	31.6 µM [rising, single point]

One compound at a time (already shown):
CCNS(=O)(=O)c1ccc(NC(=O)Nc2cccc(OC)c2)cc1 is listed as AC50 [2]: 35.5 µM [rising, single point]
Cc1cccc(C(=O)Nc2cccc(OCc3cc(=O)n4cccc(C)c4n3)c2)c1 is listed as AC50 [1]: 0.708 µM [rising, single point]

Remaining list, next part

Structure (SMILES)	AC50 [1]	AC50 [2]
CN1N=C(c2ccc(F)c(F)c2)CSC1=NCc1ccccc1	–	35.5 µM [rising, single point]
Cc1ccc(S(=O)(=O)N(C)CC(=O)O/N=C(\N)c2cccc([N+](=O)[O-])c2)cc1	–	35.5 µM [rising, single point]
Cc1csc(NC(=O)c2cc3c(s2)CCCCC3)n1	–	14.1 µM [rising, single point]
Cc1ccc(N=Nc2c(C)[nH]n(C(N)=S)c2=O)cc1C	–	0.447 µM [rising, full curve, poor fit]
Cc1ccc(C(=O)Nc2cccc(C(=O)NCc3ccccc3)c2)o1	–	0.0178 µM [falling, full curve, poor fit]
O=C(CNC(=O)C1CCCCC1)Nc1ccc(F)c(Cl)c1	1.12 µM [falling, single point]	–
Cc1noc(C)c1COc1cccc(C(=O)N2CCN(C/C=C/c3ccccc3)CC2)c1	–	35.5 µM [rising, single point]
COc1ccc(NC(=O)c2ccc3c(c2)OCO3)cc1[N+](=O)[O-]	2.82 µM [falling, full curve, poor fit]	–
Cc1nnc(NC(=O)CSc2nc3c([nH]c4ccccc43)c(=O)n2-c2ccccc2)s1	22.4 µM [falling, partial curve, poor fit]	–
Cc1cc[n+](-c2nc3ccccc3nc2C(=C=[N-])C#N)cc1	–	0.00447 µM [rising, full curve, poor fit]
Cc1cc(C)cc(C(=O)NCC(=O)OCC(=O)NCc2ccco2)c1	–	8.91 µM [falling, partial curve, poor fit]
COc1ccc(C2=NN(C(=O)/C=C/c3ccccc3)C(c3ccccc3)C2)c(OC(C)=O)c1 (configuration not stated)	–	12.6 µM [rising, single point]
COc1ccccc1-n1cnnc1SCC(=O)Nc1cccc(S(=O)(=O)N2CCCCC2)c1	12.6 µM [rising, single point]	22.4 µM [rising, partial curve]
O=C(NNc1nc(-c2ccc(Cl)cc2)cs1)c1ccco1	0.891 µM [rising, single point]	25.1 µM [rising, single point]
CC1(C)CC(=O)C2=C(C1)NC1=C(C(=O)c3ccccc31)C2c1ccccc1 (configuration not stated)	–	20 µM [rising, partial curve, poor fit]
CCC(Sc1nc2ccccc2c2nc(CCn3cncc3C)nn12)C(=O)Nc1cccc(OC)c1 (configuration not stated)	6.31 µM [rising, single point]	–
Fc1cccc(Cc2noc(CN3CCC(c4ccncc4)CC3)n2)c1	0.2 µM [falling, full curve]	0.355 µM [falling, full curve]

Reference: PubChem BioAssay AID1487 (National Center for Advancing Translational Sciences (NCATS), 2009)
